# PubChem BioAssay AID602196 – INSERM – 2012
# Aim: 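Modifiers of cisplatin sensitivity in A549 cells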
# System: human A549 lung cancer cells
# Reagents: siRNA pair against human genes
# Time to read-out: 48 h transfection before cisplatin; time from cisplatin to read-out not stated
# Treatment: cisplatin at a dose killing half of control-siRNA cells; exact dose and duration not given
# Detection: 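Cisplatin cell death as a shift from the 50% death seen with control siRNA; siRNAs toxic or growth-blocking alone scored 0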
# Direction: two-siRNA summed score (-2 to +2): higher = both siRNAs protect from cisplatin killing; -2 means both sensitise; mean protection from cisplatin (shift in death) and protection from cisplatin (shift in death), siRNA C and protection from cisplatin (shift in death), siRNA D: higher = protection from cisplatin killing
# Hit rule: 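Each siRNA scores 0 if harmful alone by LDH or WST-1, otherwise +1 if it reduces and -1 if it increases cisplatin killing; a gene is active when both siRNAs agree (sum +2 or -2)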
# Calls: active = both siRNAs shift cisplatin killing the same way; inactive = no consistent shift, or siRNA harmful alone
# In all, the deposit lists about 23,000 reagents; below is a random part of them. In the full data, 455 (2%) are marked active. 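Active includes both protection and sensitisation; some change values fall well beyond the stated -50 to +50 range.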 A number with no mark means an inactive call. Not stated in the record: the amount of reagent.
Gene,two-siRNA summed score (-2 to +2),mean protection from cisplatin (shift in death) (%),"protection from cisplatin (shift in death), siRNA C (%)","protection from cisplatin (shift in death), siRNA D (%)"
LOC152573,0,7.8,8.9,6.8
FGF6,0,7.3,3.8,10.9
KIF27P2,0,11.8,15.5,8.1
UBAP2,1,28,41.9,14.1
BCL2L12,1,16.7,19.8,13.6
C1orf146,0,12.1,10.3,13.9
PRRG1,0,-0.2,-9.1,8.7
LOC440081,0,14.9,8.5,21.3
CMAS,-1,-13.8,-23.6,-4.1
PCDHB11,0,13.7,16.4,10.9
SMG1,-1,-6.3,4.2,-16.8
ADGRL1,0,7.2,5.1,9.3
TNIP2,0,-9.2,-17.8,-0.6
IGFALS,0,-2.8,32.5,-38.2
CIC,0,6.7,7.5,5.9
MRPL32,0,-9.2,-9.5,-8.9
LOC133491,0,4.6,0.8,8.4
ZNF528-AS1,1,2,-10.3,14.2
PGBD2,0,10,15,4.9
CABS1,0,11.5,22.4,0.5
SEC14L1,0,1.8,-21,24.6
TNFRSF14,0,-11.4,-28.3,5.5
EVI2B,0,5.9,7.4,4.5
